From PubChem BioAssay record AID1224904 (Broad Institute, 2016).

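Control-channel Italica luciferase signal in doxycycline-induced 293T-iDUX4 cells, given as percent activity after a 24-hour treatment.
The test concentration is not given here.
Percent change in the Italica control signal; more negative values mean stronger inhibition, which points to nonspecific, tet-on or cytotoxic effects.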

Values are in %.
Common to all entries: measured here: Italica tet-on control reporter.
Part of the compounds only, not a random draw; the main read-out is not listed here.

SMILES,activity change (%)
CO[C@H]1CN(C)C(=O)c2cc(NC(=O)Nc3ccc(Cl)c(Cl)c3)ccc2OC[C@@H](C)NC[C@@H]1C,-50.28
O=C(Nc1ccc(F)cc1)N1CC(=O)N2[C@H](CO)[C@H](c3ccc(C#Cc4ccccc4)cc3)[C@@H]2C1,-7.935
CS(=O)(=O)Nc1ccc2c(c1)[C@H]1C[C@H](CC(=O)NCc3ccc(Oc4ccccc4)cc3)O[C@H](CO)[C@H]1O2,-49.41
Cc1ccccc1-c1ccccc1[C@H]1[C@@H](C#N)N(C(=O)c2cccc(F)c2)[C@H]1CO,-14.14
COCC(=O)Nc1ccc2c(c1)[C@H]1C[C@H](CC(=O)NCc3ccc(-c4ccccc4)cc3)O[C@H](CO)[C@H]1O2,-7.683
CN(C)C(=O)c1ccc(-c2ccc3c(c2)[C@@H]2[C@@H](CCN2C(=O)c2ccc4c(c2)OCO4)[C@@H](CO)N3)cc1,-29.92
COc1ccc2c3c([nH]c2c1)[C@@H](CO)N(Cc1ccc(Cl)cc1)CC31CCN(Cc2nccs2)CC1,-19.34
Cc1cccc(S(=O)(=O)N2CC[C@@H]3[C@@H](CO)N(C)c4ccc(-c5ccc(C#N)cc5)cc4[C@@H]32)c1,-69.99
C[C@@H]1CN([C@@H](C)CO)C(=O)c2cc(NS(=O)(=O)c3ccc(F)cc3)ccc2O[C@@H](C)CCCCO[C@H]1CN(C)C(=O)c1ccccc1,-15.95
C[C@@H]1CN([C@@H](C)CO)C(=O)c2ccccc2-c2ccccc2CO[C@@H]1CN(C)Cc1ccc2c(c1)OCO2,3.62
CCC(=O)N1CCC2(CC1)CN(Cc1cc(F)ccc1F)[C@H](CO)c1[nH]c3cc(OC)ccc3c12,-24.54
O=C(Nc1cccc(F)c1)N1CCCCN2[C@H](CO)[C@H](c3ccc(-c4ccncc4)cc3)[C@H]2C1,-13.76
O=C(C[C@H]1CC[C@H]2[C@@H](COC[C@H](O)CN2Cc2ccc(Cl)cc2)O1)Nc1nccs1,-18.74
COc1ccc(C#Cc2ccc3c(c2)[C@H]2[C@H](CCN2Cc2nccs2)[C@H](CO)N3)cc1,5.177
O=C(C[C@@H]1CC[C@H]2[C@@H](COC[C@H](O)CN2Cc2ccc3c(c2)OCO3)O1)Nc1ccc(-c2ccccc2)cc1,-45.27
O=S(=O)(c1ccccc1F)N1CC[C@@H]2[C@H]1c1cc(-c3cccc(F)c3)ccc1N[C@@H]2CO,-97.64
Cc1ccccc1S(=O)(=O)N1CCCCN2[C@H](CO)[C@H](c3ccc(-c4cccnc4)cc3)[C@@H]2C1,-17.93
O=C(C[C@H]1C[C@H]2c3cc(NC(=O)c4ccc5c(c4)OCO5)ccc3O[C@H]2[C@H](CO)O1)NCCc1ccccc1,-11.04
N#Cc1cccc(-c2ccc3c(c2)[C@H]2[C@H](CCN2S(=O)(=O)c2ccccc2F)[C@@H](CO)N3)c1,-36.55
O=S(=O)(c1ccccc1)N1CCCCN2[C@@H](CO)[C@@H](c3ccc(C#Cc4cccnc4)cc3)[C@@H]2C1,0.2761
Cc1cccc(S(=O)(=O)N2CC[C@@H]3[C@H](CO)Nc4ccc(C#Cc5cccnc5)cc4[C@@H]32)c1,-22.18
C[C@H](NC(=O)C[C@H]1CC[C@@H]2[C@H](COC[C@@H](O)CN2C(=O)Nc2cc(Cl)cc(Cl)c2)O1)c1ccccc1,-39.6
O=C(C1CCOCC1)N1CC(=O)N2[C@@H](CO)[C@H](c3ccc(C#Cc4cccc(F)c4)cc3)[C@@H]2C1,-4.784
N#Cc1ccc(-c2ccc3c(c2)[C@H]2[C@H](CCN2C(=O)Cc2ccccc2)[C@@H](CO)N3)cc1,-37.56
COc1ccc(S(=O)(=O)N2CC[C@@H]3[C@@H](CO)Nc4ccc(C5=CCCCC5)cc4[C@@H]32)cc1,-7.074
COc1cccc(S(=O)(=O)N(C)C[C@H]2OCc3ccccc3-c3c(n(C)c4ccccc34)C(=O)N([C@H](C)CO)C[C@H]2C)c1,-19.06
O=C(c1ccccc1F)N1CC2(C1)[C@@H](c1ccccc1)[C@@H](CO)N2CC1CCCC1,-30.14
O=C(C[C@H]1CC[C@@H]2[C@H](COC[C@H](O)CN2Cc2ccc(C(F)(F)F)cc2)O1)NCCc1ccccc1,-20.59
O=C(C[C@@H]1CC[C@H]2[C@@H](COC[C@H](O)CN2Cc2cccc(Cl)c2)O1)NCC1CCCCC1,-47.94
COc1cccc(C#Cc2ccc([C@@H]3[C@H](CO)N4C(=O)CN(C(=O)c5ccccc5)C[C@@H]34)cc2)c1,-21.2
COc1ccccc1S(=O)(=O)N1C[C@@H]2N[C@H](C1)C2c1ccc(-c2cccnc2)cc1 (stereo partly shown),-0.2893
O=C(C[C@@H]1CC[C@H]2[C@@H](COC[C@@H](O)CN2Cc2cc(F)ccc2F)O1)NCc1ccc(Oc2ccccc2)cc1,-22.52
Cc1cccc(S(=O)(=O)N(C)C[C@@H]2OCc3ccccc3-c3ccccc3C(=O)N([C@@H](C)CO)C[C@H]2C)c1,-3.569
O=C(c1ccc2c(c1)OCO2)N1C[C@@H]2N[C@H](C1)C2c1ccc(/C=C/c2ccccc2)cc1 (stereo partly shown),-41.24
O=C(Cc1cccnc1)N1CC(=O)N2[C@H](CO)[C@@H](c3ccc(-c4cccc(F)c4)cc3)[C@@H]2C1,-62.87
COc1cc(CN2CC3(CN(C(=O)c4ccc5c(c4)OCO5)C3)c3c(n(C)c4cc(OC)ccc34)[C@@H]2CO)cc(OC)c1,-6.647
COc1ccc2c3c(n(C)c2c1)[C@@H](CO)N(C(=O)Nc1ccc(F)cc1)CC31CN(Cc2ccccc2F)C1,-69.6
O=C(C[C@H]1CC[C@@H]2[C@H](COC[C@H](O)CN2C(=O)c2cc(Cl)cc(Cl)c2)O1)N1CCc2ccccc2C1,-23.51
CO[C@@H]1CN(C)C(=O)c2ccc(NC(=O)Nc3ccc(C(F)(F)F)cc3)cc2OC[C@H](C)NC[C@@H]1C,-1.128
COCC(=O)N1CC2(C1)[C@H](c1ccc(-c3cccc(C)c3)cc1)[C@H](CO)N2C(=O)C1CC1,-7.49
COc1ccc2c3c(n(C)c2c1)[C@H](CO)N(C(=O)c1ccccc1)CC31CN(CC2CC2)C1,-17.6
Cc1ccccc1S(=O)(=O)N1CC[C@@H]2[C@@H](CO)N(C)c3ccc(-c4cccc(F)c4)cc3[C@@H]21,-6.436
O=C(C[C@@H]1C[C@H]2c3cc(NC(=O)Nc4ccc(C(F)(F)F)cc4)ccc3O[C@H]2[C@@H](CO)O1)NCCc1ccccc1,-15.44
CCC(=O)N1CC(=O)N2[C@H](CO)[C@@H](c3ccc(-c4ccccc4F)cc3)[C@@H]2C1,-39.89
OC[C@@H]1Nc2ccc(-c3cccc(F)c3)cc2[C@H]2[C@@H]1CCN2Cc1ccncc1,-0.4834
CCC(=O)N1CC2(CCN(Cc3ccc(Cl)cc3)CC2)c2c(n(C)c3cc(OC)ccc23)[C@H]1CO,-68.56
COc1ccc(C#Cc2ccc([C@@H]3[C@H]4CN(C(=O)Nc5ccccc5F)CC(=O)N4[C@H]3CO)cc2)cc1,-61.68
N#C[C@@H]1[C@H](c2ccccc2-c2ccc(F)cc2)[C@H](CO)N1C(=O)Cc1ccccc1,-13.19
CCCC#Cc1ccc([C@H]2[C@@H](CO)N3CCCCN(C(=O)c4ccc5c(c4)OCO5)C[C@H]23)cc1,-81.7
CC(C)[C@H](C)NC(=O)N(C)C[C@@H]1OCc2ccccc2-c2c(n(C)c3ccccc23)C(=O)N([C@H](C)CO)C[C@@H]1C,-44.47
COc1ccc2c3c(n(C)c2c1)[C@H](CO)NCC31CCN(S(=O)(=O)c2ccc(C)cc2)CC1,-5.753
O=C(C[C@H]1CC[C@@H]2[C@H](COC[C@H](O)CN2Cc2cc(F)ccc2F)O1)N1CCc2ccccc2C1,-19.5
CCCNC(=O)N1CC(=O)N2[C@H](C1)[C@@H](c1ccc(C#Cc3cccc(OC)c3)cc1)[C@@H]2CO,-18.19
COc1ccc(C#Cc2ccc([C@@H]3[C@H]4CN(C(=O)Nc5cccc(F)c5)CCCCN4[C@H]3CO)cc2)cc1,-5.03
O=C(CC1CC1)N1CC[C@@H]2[C@H]1c1cc(-c3cccc(F)c3)ccc1N[C@@H]2CO,0.01154
O=C(C1CCC1)N1CC[C@@H]2[C@H]1c1cc(C#Cc3cccc(F)c3)ccc1N[C@@H]2CO,5.142
COc1ccc2c3c(n(C)c2c1)[C@H](CO)N(C(=O)c1cccc(F)c1)CC31CN(C(=O)c2cccc(F)c2)C1,-8.635
CN1c2ccc(-c3cccc(C#N)c3)cc2[C@H]2[C@H](CCN2S(=O)(=O)c2ccccc2)[C@@H]1CO,-18.22
O=C(C[C@H]1C[C@H]2c3cc(NS(=O)(=O)c4ccc(F)cc4)ccc3O[C@H]2[C@H](CO)O1)NCc1ccc(Cl)cc1,-38.87
COc1ccc2c3c([nH]c2c1)[C@@H](CO)N(C(=O)Nc1ccc(F)cc1)CC31CCN(C(=O)c2ccccc2F)CC1,-40.93
C[C@H](CO)N1C[C@H](C)[C@H](CN(C)S(=O)(=O)c2ccccc2F)OCc2ccccc2-c2ccccc2C1=O,-11.81
COCC#Cc1ccc([C@H]2[C@H](CO)N3CCCCN(S(=O)(=O)c4ccc(OC)cc4)C[C@@H]23)cc1,4.292

The last 6 entries again:

SMILES,activity change (%)
COc1ccc2c3c(n(C)c2c1)[C@H](CO)N(C(=O)c1cccc(F)c1)CC31CN(C(=O)c2cccc(F)c2)C1,-8.635
CN1c2ccc(-c3cccc(C#N)c3)cc2[C@H]2[C@H](CCN2S(=O)(=O)c2ccccc2)[C@@H]1CO,-18.22
O=C(C[C@H]1C[C@H]2c3cc(NS(=O)(=O)c4ccc(F)cc4)ccc3O[C@H]2[C@H](CO)O1)NCc1ccc(Cl)cc1,-38.87
COc1ccc2c3c([nH]c2c1)[C@@H](CO)N(C(=O)Nc1ccc(F)cc1)CC31CCN(C(=O)c2ccccc2F)CC1,-40.93
C[C@H](CO)N1C[C@H](C)[C@H](CN(C)S(=O)(=O)c2ccccc2F)OCc2ccccc2-c2ccccc2C1=O,-11.81
COCC#Cc1ccc([C@H]2[C@H](CO)N3CCCCN(S(=O)(=O)c4ccc(OC)cc4)C[C@@H]23)cc1,4.292